Measured data: PubChem BioAssay AID1259308 (NCATS, 2017)

Aim: 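Genes whose loss raises luciferase production in HEK293 cells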 (primary screen)
System: human HEK293 embryonic kidney cells stably expressing firefly luciferase (HEK-CMV-Luc2-Hygro)
Reagent: single siRNA against human genes, 0.8 pmol siRNA per well
Time to read-out: 72 h
Measurement: 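Luciferase light (ONE-Glo) measured on one replicate plate set and viability (CellTiter-Glo) on the other, scaled to a negative control siRNA, with robust z-scores and luciferase per cell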
Direction: total luciferase, z-score and total luciferase, % of control: higher = more reporter protein produced
Rule for the call: 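An siRNA counts as active if its total luciferase robust z-score exceeds 3; genes with two or more such siRNAs out of three were retested with fresh siRNAs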
Calls: active = raised luciferase; inactive = no rise
Shown is a random part of about 59,000 reagents. About 1,510 of all reagents (2.6%) count as active. 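Calls use total luciferase alone and ignore viability, so some active siRNAs may act by altering cell number.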 The numbers tell different reagents against one gene apart. Further read-outs or replicates are left out here.

GOLGA7 (GeneID 51125) #1
- total luciferase, z-score: 1.4
- total luciferase, % of control: 110
- call: inactive

GOLGA7 (GeneID 51125) #2
- total luciferase, z-score: 1.32
- total luciferase, % of control: 108
- call: inactive

GOLGA7 (GeneID 51125) #3
- total luciferase, z-score: -0.374
- total luciferase, % of control: 74.4
- call: inactive

C1orf50 (GeneID 79078) #1
- total luciferase, z-score: 0.753
- total luciferase, % of control: 96.9
- call: inactive

C1orf50 (GeneID 79078) #2
- total luciferase, z-score: 0.909
- total luciferase, % of control: 100
- call: inactive

C1orf50 (GeneID 79078) #3
- total luciferase, z-score: 0.229
- total luciferase, % of control: 86.4
- call: inactive

STX19 (GeneID 415117) #1
- total luciferase, z-score: 0.0586
- total luciferase, % of control: 83.1
- call: inactive

STX19 (GeneID 415117) #2
- total luciferase, z-score: 0.567
- total luciferase, % of control: 93.2
- call: inactive

STX19 (GeneID 415117) #3
- total luciferase, z-score: -0.0649
- total luciferase, % of control: 80.6
- call: inactive

OPN3 (GeneID 23596) #1
- total luciferase, z-score: 2
- total luciferase, % of control: 122
- call: inactive

OPN3 (GeneID 23596) #2
- total luciferase, z-score: 0.243
- total luciferase, % of control: 86.7
- call: inactive

OPN3 (GeneID 23596) #3
- total luciferase, z-score: 0.803
- total luciferase, % of control: 97.9
- call: inactive

RRAD (GeneID 6236) #1
- total luciferase, z-score: 1.39
- total luciferase, % of control: 110
- call: inactive

RRAD (GeneID 6236) #2
- total luciferase, z-score: 1.53
- total luciferase, % of control: 112
- call: inactive

RRAD (GeneID 6236) #3
- total luciferase, z-score: -0.111
- total luciferase, % of control: 79.7
- call: inactive

BABAM1 (GeneID 29086) #1
- total luciferase, z-score: -0.818
- total luciferase, % of control: 65.6
- call: inactive

BABAM1 (GeneID 29086) #2
- total luciferase, z-score: 1.88
- total luciferase, % of control: 119
- call: inactive

BABAM1 (GeneID 29086) #3
- total luciferase, z-score: -0.0783
- total luciferase, % of control: 80.3
- call: inactive

MAEL (GeneID 84944) #1
- total luciferase, z-score: -0.0557
- total luciferase, % of control: 80.8
- call: inactive

MAEL (GeneID 84944) #2
- total luciferase, z-score: -2.23
- total luciferase, % of control: 37.5
- call: inactive

MAEL (GeneID 84944) #3
- total luciferase, z-score: -0.821
- total luciferase, % of control: 65.6
- call: inactive
